Results are given in words; binding and its absence hold for the method and conditions named. Binding seen in cells or lysates may run through a third protein. Some entries that bind do so weakly or less than the wild type.
How the values were obtained:
[1] = biological target: Toll-like receptor 4 (mouse (endogenous in neutrophils of C57BL/6 mice)) (UniProt Q9QUK6); assay: co-IP; anti-TLR4 antibody on protein G Dynabeads, 100 ug membrane proteins of isolated mouse neutrophils treated with rA2 (2 ug/mL) for 1 h; blot with anti-AXNA2; only the binder purified
[2] = biological target: Toll-like receptor 4 (mouse (endogenous in neutrophils of C57BL/6 mice)) (UniProt Q9QUK6); assay: co-IP; protein G Dynabeads with antibody, lysates of circulating neutrophils isolated from sham, TBI and TBI + rA2 (1 mg/kg i.p. at 2 h) mice at 12 h after TBI; Western blot; precipitating antibody not named for this panel
[3] = biological target: Toll-like receptor 4 (mouse (endogenous in neutrophils of C57BL/6 mice)) (UniProt Q9QUK6); assay: co-IP; anti-TLR4 antibody on protein G Dynabeads, 100 ug membrane proteins of isolated mouse neutrophils treated with PBS for 1 h, 15 min at room temperature; blot with anti-AXNA2

Chains of the proteins cited; added tags and fusions are not shown. Residues count along the entry.
UniProt Q9QUK6, residues 26-835: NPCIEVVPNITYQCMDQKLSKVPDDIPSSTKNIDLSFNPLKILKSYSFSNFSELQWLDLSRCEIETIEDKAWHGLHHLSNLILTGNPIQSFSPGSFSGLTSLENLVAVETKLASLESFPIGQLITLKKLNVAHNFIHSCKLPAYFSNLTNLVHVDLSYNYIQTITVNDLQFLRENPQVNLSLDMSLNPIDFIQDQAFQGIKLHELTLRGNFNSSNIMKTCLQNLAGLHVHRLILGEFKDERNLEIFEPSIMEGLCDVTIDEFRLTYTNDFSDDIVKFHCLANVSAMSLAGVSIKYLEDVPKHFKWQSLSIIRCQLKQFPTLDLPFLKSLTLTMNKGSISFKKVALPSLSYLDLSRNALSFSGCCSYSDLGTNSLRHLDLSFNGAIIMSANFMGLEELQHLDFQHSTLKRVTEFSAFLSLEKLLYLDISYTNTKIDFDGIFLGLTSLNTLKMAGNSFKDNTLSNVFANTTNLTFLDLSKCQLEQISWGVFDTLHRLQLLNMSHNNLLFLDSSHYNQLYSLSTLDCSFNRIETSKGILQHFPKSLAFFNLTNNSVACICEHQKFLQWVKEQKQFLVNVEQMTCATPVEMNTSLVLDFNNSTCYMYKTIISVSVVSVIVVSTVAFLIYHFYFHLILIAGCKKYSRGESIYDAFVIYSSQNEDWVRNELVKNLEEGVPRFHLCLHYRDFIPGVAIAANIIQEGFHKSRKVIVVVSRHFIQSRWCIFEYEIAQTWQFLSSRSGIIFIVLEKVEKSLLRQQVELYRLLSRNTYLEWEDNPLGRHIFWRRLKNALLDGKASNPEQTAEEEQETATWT
UniProt P07355: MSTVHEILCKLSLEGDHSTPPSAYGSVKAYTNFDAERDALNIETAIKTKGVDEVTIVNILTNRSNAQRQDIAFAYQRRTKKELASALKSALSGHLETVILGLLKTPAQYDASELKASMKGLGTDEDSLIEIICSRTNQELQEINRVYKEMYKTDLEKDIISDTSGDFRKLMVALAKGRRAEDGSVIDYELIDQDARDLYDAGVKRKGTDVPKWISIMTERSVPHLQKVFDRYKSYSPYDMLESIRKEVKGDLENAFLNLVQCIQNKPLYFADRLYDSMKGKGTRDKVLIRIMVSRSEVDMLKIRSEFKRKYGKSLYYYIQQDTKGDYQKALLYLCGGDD
UniProt P22366: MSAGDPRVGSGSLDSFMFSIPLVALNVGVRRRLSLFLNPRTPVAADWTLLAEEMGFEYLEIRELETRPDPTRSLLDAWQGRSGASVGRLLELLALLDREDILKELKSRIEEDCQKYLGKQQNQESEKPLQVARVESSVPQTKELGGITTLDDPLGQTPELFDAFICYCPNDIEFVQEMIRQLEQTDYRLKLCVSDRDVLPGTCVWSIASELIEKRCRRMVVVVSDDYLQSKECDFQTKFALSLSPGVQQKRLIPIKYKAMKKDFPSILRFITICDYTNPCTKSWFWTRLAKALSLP
UniProt P07356: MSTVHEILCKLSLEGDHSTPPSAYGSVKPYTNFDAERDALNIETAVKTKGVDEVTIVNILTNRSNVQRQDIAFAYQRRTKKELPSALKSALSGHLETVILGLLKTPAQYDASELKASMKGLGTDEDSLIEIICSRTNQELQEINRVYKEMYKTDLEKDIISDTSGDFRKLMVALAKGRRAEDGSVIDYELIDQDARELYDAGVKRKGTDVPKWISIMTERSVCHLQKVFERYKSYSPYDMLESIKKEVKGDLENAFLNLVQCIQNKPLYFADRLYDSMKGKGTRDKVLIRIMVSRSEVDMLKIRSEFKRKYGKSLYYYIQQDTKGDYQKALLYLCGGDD

Molecule | binding [2] | other results
recombinant annexin A2 (from UniProt P07355 1-339) |  | binding [1]: binds
MyD88 (from UniProt P22366 1-296) | binds | 
annexin A2 (endogenous, neutrophil membrane) (from UniProt P07356 1-339) |  | binding [3]: binds
TRIF (protein, UniProt Q80UF7 1-732) MDNPGPSLRGAFGILGALERDRLTHLKHKLGSLCSGSQESKLLHAMVLLALGQDTEARVSLESLKMNTVAQLVAHQWADMETTEGPEEPPDLSWTVARLYHLLAEENLCPASTRDMAYQVALRDFASQGDHQLGQLQNEAWDRCSSDIKGDPSGFQPLHSHQGSLQPPSASPAVTRSQPRPIDTPDWSWGHTLHSTNSTASLASHLEISQSPTLAFLSSHHGTHGPSKLCNTPLDTQEPQLVPEGCQEPEEISWPPSVETSVSLGLPHEISVPEVSPEEASPILPDALAAPDTSVHCPIECTELSTNSRSPLTSTTESVGKQWPITSQRSPQVPVGDDSLQNTTSSSPPAQPPSLQASPKLPPSPLSSASSPSSYPAPPTSTSPVLDHSETSDQKFYNFVVIHARADEQVALRIREKLETLGVPDGATFCEEFQVPGRGELHCLQDAIDHSGFTILLLTASFDCSLSLHQINHALMNSLTQSGRQDCVIPLLPLECSQAQLSPDTTRLLHSIVWLDEHSPIFARKVANTFKTQKLQAQRVRWKKAQEARTLKEQSIQLEAERQNVAAISAAYTAYVHSYRAWQAEMNKLGVAFGKNLSLGTPTPSWPGCPQPIPSHPQGGTPVFPYSPQPPSFPQPPCFPQPPSFPQPPSFPLPPVSSPQSQSFPSASSPAPQTPGPQPLIIHHAQMVQLGVNNHMWGHTGAQSSDDKTECSENPCMGPLTDQGEPLLETPE | binds | 
